# Reference: PubChem BioAssay AID488922 (Johns Hopkins Ion Channel Center, 2010)
# This is one part of the list.
# Test: blockers of human TASK-3 (KCNK9) channel – HEK293 cells, thallium flux, primary screen (AID 488922);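 also: negative B-score means less thallium flux so channel inhibition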
# Details: HEK293 KCNK9, FluxOR thallium flux fluorescence; initial fluorescence intensity artifact flag; at 10 µM
row,Structure (SMILES),B-score
1,CC(C)(C)OC(=O)N1CCC(N(C(=O)c2ccccc2)c2ccc(Cl)cc2)CC1,-1.24
2,COc1cccc(C(=O)N(c2cc(C)cc(C)c2)C2CCN(C(=O)OC(C)(C)C)CC2)c1,-2.43
3,CC(C)(C)OC(=O)N1CCC(N(C(=O)c2ccccc2)c2ccc(F)cc2)CC1,0.029
4,Cc1cc(C)cc(N(C(=O)c2ccccc2)C2CCN(C(=O)OC(C)(C)C)CC2)c1,-1.26
